Measurements as given in PubChem BioAssay AID2685 (National Center for Advancing Translational Sciences (NCATS), 2010).
This is one part of the list. Shown are side measurements of this screen, not its main read-out; they come without a call. Most of these compounds were active or inconclusive in the main read-out, so they are no random draw. Words in brackets tell the shape of the fitted curve; partial curves, single points and poor fits give uncertain potencies.

Test: qHTS Assay for Lipid Storage Modulators in Drosophila S3 Cells;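 on cell number change: cells counted by Cell Tracker Red CMTPX staining in the red channel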
Conditions: BODIPY lipid droplet fluorescence, 18-24 h; for cell number change: measured here: cell count max response, cells fed with added oleic acid
Method in brief: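 Drosophila S3 cells got compounds at several concentrations plus oleic acid (400 uM solution). Laser-scanning cytometry with 488 nm excitation read lipid droplets at 500-530 nm and cells at 575-640 nm. Percent activity was relative to 20 uM Triacsin C.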

[1] = measured here: lipid fluorescence (Fed channel) AC50, cells fed with added oleic acid
[2] = measured here: cell number channel AC50, cells fed with added oleic acid

SMILES	cell number change	AC50 [1]	AC50 [2]
CCOC(=O)c1[nH]nc2c1C(=O)N(CC)C2=O	-11.3%	18.4 µM [falling, single point]	–
CCn1ccnc1CN(C)Cc1cn(-c2ccc(C)cc2)nc1-c1ccc(F)cc1	-34.2%	1.84 µM [falling, partial curve, poor fit]	29.1 µM [falling, single point]
CC(C)c1ccc(OCc2ccc(C(=O)N3CCCC3)o2)cc1	-23.8%	2.06 µM [rising, partial curve]	–
CC(C)CC(=O)c1c[nH]c(C(=O)N2CCN(Cc3ccccc3)CC2)c1	37.2%	–	6.51 µM [rising, single point]
Cc1ccccc1OCC(O)CN1CCC(C)CC1 (stereo not given)	-37%	4.11 µM [falling, partial curve]	6.51 µM [falling, partial curve]
Cc1ccc(-c2noc(CSc3nnc(Cc4ccccc4)n3-c3cccc(C)c3)n2)cc1	-14.3%	1.46 µM [rising, partial curve]	–
O=S(=O)(Cc1ccc(Cl)cc1)NCc1ccc2c(c1)OCO2	22.2%	–	–
Fc1ccc(-c2cn3ccccc3n2)cc1	-8.14%	29.1 µM [falling, single point]	–
CC(=O)Nc1ccc(NC(=O)C(C)OC(=O)c2cc(S(=O)(=O)N(C)C)ccc2N2CCCC2)cc1 (stereo not given)	-64%	16.4 µM [rising, partial curve]	5.17 µM [falling, single point]
O=C(NCCc1ccc(Cl)cc1)c1ccc(OCC2CCCO2)cc1 (stereo not given)	10.8%	–	–
CCOc1ccc(-n2c(O)c(/C=N/Nc3nnc(C)c(=O)[nH]3)c3ccccc3c2=O)cc1	-7.78%	0.411 µM [falling, full curve]	–
Clc1ccc(-n2nnnc2-c2ccccc2)cc1Cl	4.15%	32.6 µM [falling, partial curve, poor fit]	–
CC(=O)c1ccc(N/N=C(/C(N)=O)C2=NC(C)(C)Cc3ccccc32)cc1	-21.8%	29.1 µM [falling, single point]	–
CCC1(c2ccccc2)NC(=O)N(CC(=O)Nc2ccccc2N2CCCCC2)C1=O (stereo not given)	-5.52%	29.1 µM [rising, single point]	–
COc1ccccc1N1CCN(C(=O)COc2cc(C)cc3oc(=O)cc(C)c23)CC1	–	4.61 µM [falling, single point]	–
COc1cc(/C=N/n2c(SC)nnc(C(C)(C)C)c2=O)ccc1O	1.19%	0.082 µM [falling, full curve, poor fit]	–
COc1ccc(OCC2CCCN(Cc3nc(CC4CC4)no3)C2)cc1 (stereo not given)	16.1%	14.6 µM [rising, partial curve, poor fit]	–
CCN1CCN(C(C(=O)NC2CCCC2)c2ccc(Cl)cc2)CC1 (stereo not given)	40.7%	–	20.6 µM [rising, single point]
COc1ccc(C(=O)N2CCN(C(=O)c3ccco3)CC2)cc1	12.2%	6.51 µM [falling, single point]	–
COc1ccc(CNC(=O)C(=O)NCC2OCCN2C(=O)c2ccc(OC)cc2)cc1 (stereo not given)	14.7%	4.11 µM [rising, full curve, poor fit]	5.8 µM [rising, partial curve]

Three records drawn at random from those above, as already listed:
SMILES	cell number change	AC50 [1]	AC50 [2]
CC(C)c1ccc(OCc2ccc(C(=O)N3CCCC3)o2)cc1	-23.8%	2.06 µM [rising, partial curve]	–
Cc1ccc(-c2noc(CSc3nnc(Cc4ccccc4)n3-c3cccc(C)c3)n2)cc1	-14.3%	1.46 µM [rising, partial curve]	–
CCC1(c2ccccc2)NC(=O)N(CC(=O)Nc2ccccc2N2CCCCC2)C1=O (stereo not given)	-5.52%	29.1 µM [rising, single point]	–

Look-ups from the results shown:
CCN1CCN(C(C(=O)NC2CCCC2)c2ccc(Cl)cc2)CC1 (stereo not given) | AC50 [2]: 20.6 µM [rising, single point]
Clc1ccc(-n2nnnc2-c2ccccc2)cc1Cl | AC50 [1]: 32.6 µM [falling, partial curve, poor fit]

Next part

SMILES	cell number change	AC50 [1]	AC50 [2]
Cc1ccc(-c2nsc3c(N4CCC(C(N)=O)CC4)ncnc23)cc1	-95.8%	18.4 µM [falling, partial curve]	–
O=C1Nc2cc(C(=O)N3CCC(N4CCCCC4)CC3)ccc2S/C1=C\c1ccccc1	17%	10.3 µM [falling, single point]	–
CC1(C)CSC(=NCCc2ccccc2)N1	–	29.1 µM [falling, single point]	–
COc1ccc(CC(=O)Nc2ccc(S(=O)(=O)Nc3cc(OC)nc(OC)n3)cc2)cc1	7.56%	–	–
COc1ccc(N2CCN(CCCNC(=O)Cn3c(=O)c4cccn4c4ccccc43)CC2)cc1	-33.6%	29.1 µM [falling, single point]	–
CC(=O)Nc1cc(C(=O)c2ccccc2)ccc1N1CCOCC1	–	6.51 µM [rising, single point]	–
CN1CCc2c(sc(NC(=O)C3CCCN3S(=O)(=O)c3ccc(Cl)s3)c2C(N)=O)C1 (stereo not given)	35.7%	–	1.16 µM [rising, full curve]
Cc1cccc(C(=O)NC(=S)Nc2ccccc2C(F)(F)F)c1	6.35%	23.1 µM [rising, single point]	–
Cn1cnc([N+](=O)[O-])c1Sc1nnc(-c2cccnc2)n1C	-37.5%	0.651 µM [falling, full curve, poor fit]	20.6 µM [falling, single point]
CC(=O)c1ccc2noc(-c3ccccc3)c2c1	-20.8%	25.9 µM [falling, partial curve, poor fit]	–
Cc1ccc(OCC(=O)Nc2ccc(S(=O)(=O)Nc3cc(C)nc(C)n3)cc2)c(C)c1	6.83%	–	–
COc1cc(NC(=O)c2cc(-c3cccnc3)nc3ccc(C)cc23)c(OC)cc1Cl	69.8%	0.58 µM [rising, single point]	18.4 µM [rising, single point]
O=C(CSS(=O)(=O)O)N1CCN(C(=O)c2ccoc2)CC1	1.15%	–	–
O=C(Nc1ncc2c(n1)CC(c1ccco1)CC2=O)c1ccc(Cl)cc1 (stereo not given)	9.5%	20.6 µM [rising, single point]	–
C#Cc1cccc(NC(=O)C2CCN(C(C)=O)CC2)c1	16.6%	11.6 µM [rising, partial curve]	–
CN(CC(=O)Nc1ccccc1Cl)C(=O)CSc1nnc(-c2ccco2)n1C	–	6.51 µM [rising, single point]	–
Cc1oc(-c2ccoc2)nc1CN(CC1CCC(=O)N1)C(C)C (stereo not given)	34.1%	29.1 µM [rising, single point]	0.00517 µM [rising, full curve, poor fit]
CCOC(=O)Cc1csc(NC(=O)CSc2nc(-c3ccccc3)c(C#N)c(=O)[nH]2)n1	-37.7%	29.1 µM [falling, single point]	20.6 µM [falling, single point]
O=S(=O)(c1ccc2c(c1)OCCO2)N(Cc1ccc(F)cc1)Cc1nnc(-c2cccs2)o1	–	0.58 µM [rising, single point]	0.58 µM [rising, single point]
Cc1nc(-c2ccccc2)sc1-c1nc(-c2ccccc2)ncc1S(=O)(=O)c1ccccc1	11.8%	16.4 µM [rising, single point]	–

SMILES	cell number change	AC50 [1]	AC50 [2]
CC1CCCCN1S(=O)(=O)c1ccc(NC(=O)CSc2nnnn2C)cc1 (stereo not given)	3.55%	–	–
CN=C1S/C(=C\c2cc(C)n(-c3ccccc3F)c2C)C(=O)N1C	–	29.1 µM [falling, single point]	–
Cc1cccc(NC(=O)CSc2nnc(-c3ccco3)o2)c1	47.2%	4.61 µM [rising, single point]	3.26 µM [rising, full curve]
Clc1ccc(Nc2ncn[nH]2)c(Cl)c1	-36.8%	1.46 µM [falling, full curve]	0.092 µM [falling, full curve]
O=C(Nc1ccccc1)N(Cc1cccs1)C1CCCC1	8.6%	11.6 µM [rising, single point]	–
Cc1cccc(N=C2C(=O)Nc3c(Cl)cccc32)c1	-13%	–	–
CCOCCCNC(=S)N1C2CCC1CC(NC(=O)NC1CCCCC1)C2 (stereo not given)	6.41%	0.13 µM [falling, full curve, poor fit]	5.17 µM [falling, partial curve]
O=c1oc2ccccc2c(O)c1CN1CCCCC1	12.3%	0.116 µM [rising, single point]	–
CC(=O)CNc1ccc(S(=O)(=O)N/N=C/c2ccccc2)cc1	10.4%	–	–
COCC(=O)Nc1ccc(S(=O)(=O)Nc2ccccn2)cc1	-38.1%	0.13 µM [falling, full curve, poor fit]	0.731 µM [falling, full curve]
CC(C)(C)c1ccc(OCC(=O)NCCN2CCOCC2)cc1	-21.1%	0.1 µM [rising, full curve, poor fit]	–
COc1ccc(CCNC(=O)c2cc3c(=O)n4cccc(C)c4nc3n(CCCN3CCOCC3)c2=N)cc1	-15.9%	0.651 µM [falling, full curve]	–
Cc1cc(C)cc(NC(=O)C(=O)NCc2ccccn2)c1	8.76%	–	–
O=C(CC1NC2CCCCC2NC1=O)Nc1cccc(C(F)(F)F)c1 (stereo not given)	-32.5%	–	0.731 µM [falling, full curve]
N#CC(c1ccccn1)c1ncc(C(F)(F)F)cc1Cl (stereo not given)	32.6%	20.6 µM [rising, partial curve]	18.4 µM [rising, single point]
CCN1CCCC1CN(Cc1cc2ccc(C)c(C)c2[nH]c1=O)C(=O)Nc1ccccc1OC (stereo not given)	12.5%	6.51 µM [falling, single point]	–
Cc1ccc(NC(=S)N(C)N)cc1Cl	40.8%	–	9.2 µM [rising, partial curve]
CCOc1ccc(C(=O)Nc2ccc(S(=O)(=O)N3CCOCC3)cc2)cc1OCC	-8.18%	–	–
Cc1nn(C)c(C)c1NC(=O)Nc1ccc(Cl)c(Cl)c1	-23.6%	2.59 µM [falling, full curve]	3.26 µM [falling, single point]
COC(=O)C(C)N=Cc1ccccc1 (stereo not given)	-16.3%	0.651 µM [falling, partial curve, poor fit]	0.58 µM [falling, full curve]
